Test results from article PMC9368491.
Results are given in words; binding and its absence hold for the method and conditions named. Binding seen in cells or lysates may run through a third protein. Some entries that bind do so weakly or less than the wild type.

Chains of the proteins cited; added tags and fusions are not shown. Lines headed by an entry give the natural chain unless they say otherwise; changes in a name come on top.
UniProt Q03135: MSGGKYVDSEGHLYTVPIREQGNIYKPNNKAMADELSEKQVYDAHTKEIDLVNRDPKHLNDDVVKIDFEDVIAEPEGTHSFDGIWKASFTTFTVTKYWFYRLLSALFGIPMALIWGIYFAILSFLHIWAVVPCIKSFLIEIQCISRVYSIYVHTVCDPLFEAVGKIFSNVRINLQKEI
UniProt P35222: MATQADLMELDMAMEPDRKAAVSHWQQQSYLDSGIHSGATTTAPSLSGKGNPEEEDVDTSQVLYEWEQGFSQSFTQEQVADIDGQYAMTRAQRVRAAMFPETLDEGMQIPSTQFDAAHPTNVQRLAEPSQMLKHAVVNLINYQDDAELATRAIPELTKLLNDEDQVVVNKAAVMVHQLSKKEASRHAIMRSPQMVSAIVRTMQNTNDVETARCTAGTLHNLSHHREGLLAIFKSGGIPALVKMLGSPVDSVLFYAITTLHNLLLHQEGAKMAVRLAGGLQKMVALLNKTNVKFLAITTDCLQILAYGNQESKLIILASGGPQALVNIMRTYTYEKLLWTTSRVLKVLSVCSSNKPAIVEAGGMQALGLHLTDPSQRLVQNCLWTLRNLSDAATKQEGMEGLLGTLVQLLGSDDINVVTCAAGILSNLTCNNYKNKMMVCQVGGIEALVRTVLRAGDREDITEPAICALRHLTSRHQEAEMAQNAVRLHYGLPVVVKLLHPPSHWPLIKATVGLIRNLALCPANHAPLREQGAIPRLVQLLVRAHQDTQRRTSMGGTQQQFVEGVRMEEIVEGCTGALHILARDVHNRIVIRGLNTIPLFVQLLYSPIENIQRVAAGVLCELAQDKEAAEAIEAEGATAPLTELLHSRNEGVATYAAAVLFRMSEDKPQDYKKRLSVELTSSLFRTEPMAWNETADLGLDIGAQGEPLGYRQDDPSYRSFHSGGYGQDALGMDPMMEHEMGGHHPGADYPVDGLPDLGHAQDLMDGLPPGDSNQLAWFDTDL

How the values were obtained:
Experiment in all cases: co-IP; MCF-7 cells transfected with Cav-1 WT, Y14F or Y14D, treated with DMSO or 50 μM NS1643 for 1 h; lysed and precipitated with anti-Cav-1 antibody; eluted proteins blotted for β-catenin
[1] = biological target: Cav-1 phosphodefective Y14F mutant (human) (UniProt Q03135)
[2] = biological target: Cav-1 phosphomimicking Y14D mutant (human) (UniProt Q03135)
[3] = biological target: Cav-1 wild type (WT) (human) (UniProt Q03135)

binding [1]: binds weakly
binding [2]: binds
binding [3]: binds
Substance: β-catenin (from UniProt P35222 1-781)
